## Drug screen on melanoma cell lines: apoptosis marker

Compounds and concentrations:
CHIR-265 (400 nM): Cn1c(Nc2ccc(C(F)(F)F)cc2)nc2cc(Oc3ccnc(-c4ncc(C(F)(F)F)[nH]4)c3)ccc21
TCS401 (8330 nM): O=C(O)C(=O)Nc1sc2c(c1C(=O)O)CCNC2
GSK650394 (800 nM): O=C(O)c1ccc(-c2c[nH]c3ncc(-c4ccccc4)cc23)cc1C1CCCC1
PF-562271 (400 nM): CN(c1ncccc1CNc1nc(Nc2ccc3c(c2)CC(=O)N3)ncc1C(F)(F)F)S(C)(=O)=O
docetaxel (0.5 nM): CC(=O)O[C@@]12CO[C@@H]1C[C@H](O)[C@@]1(C)C(=O)[C@H](O)C3=C(C)[C@@H](OC(=O)[C@H](O)[C@@H](NC(=O)OC(C)(C)C)c4ccccc4)C[C@@](O)([C@@H](OC(=O)c4ccccc4)[C@H]21)C3(C)C
T0901317 (7000 nM): O=S(=O)(c1ccccc1)N(CC(F)(F)F)c1ccc(C(O)(C(F)(F)F)C(F)(F)F)cc1
GW0742 (10000 nM): Cc1cc(SCc2sc(-c3ccc(C(F)(F)F)c(F)c3)nc2C)ccc1OCC(=O)O
ABT-263 (2000 nM): CC1(C)CCC(c2ccc(Cl)cc2)=C(CN2CCN(c3ccc(C(=O)NS(=O)(=O)c4ccc(N[C@H](CCN5CCOCC5)CSc5ccccc5)c(S(=O)(=O)C(F)(F)F)c4)cc3)CC2)C1
everolimus (100 nM): CO[C@H]1C[C@@H]2CC[C@@H](C)[C@@](O)(O2)C(=O)C(=O)N2CCCC[C@H]2C(=O)O[C@H]([C@H](C)C[C@@H]2CC[C@@H](OCCO)[C@H](OC)C2)CC(=O)[C@H](C)/C=C(\C)[C@@H](O)[C@@H](OC)C(=O)[C@H](C)C[C@H](C)/C=C/C=C/C=C/1C

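Human melanoma cells were exposed to two drugs together for 72 h in 1,536-well plates and read by automated microscopy after fixing and staining. Values are the share of nuclei positive for cleaved PARP as a percentage of the same share in the DMSO control: 100 is the control level, higher means more apoptosis. Every drug was used at one fixed concentration, the higher of two screened. No replicate spread is given; individual values may be noisy. The marker varies much from line to line, for technical or biological reasons.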
Only some of the drugs and lines screened are listed, without regard to their results.

Pair	WM115
everolimus + ABT-263	1360
T0901317 + docetaxel	186
ABT-263 + CHIR-265	3310
GW0742 + docetaxel	211
GSK650394 + GW0742	44.8
GSK650394 + everolimus	166
GW0742 + CHIR-265	1720
docetaxel + CHIR-265	3470
ABT-263 + T0901317	64.9
T0901317 + GW0742	92.8
TCS401 + GSK650394	253
CHIR-265 + T0901317	514
CHIR-265 + GSK650394	274
PF-562271 + everolimus	225
PF-562271 + docetaxel	827
TCS401 + ABT-263	116
everolimus + GW0742	63.0
CHIR-265 + TCS401	447
GSK650394 + ABT-263	128
docetaxel + everolimus	3030
PF-562271 + TCS401	62.5
ABT-263 + docetaxel	9650
CHIR-265 + everolimus	5710
GW0742 + PF-562271	62.4
GW0742 + TCS401	141
TCS401 + T0901317	83.0
CHIR-265 + PF-562271	2150
PF-562271 + GSK650394	72.0
GSK650394 + docetaxel	611
T0901317 + everolimus	68.4
docetaxel + TCS401	136
GW0742 + ABT-263	127
PF-562271 + ABT-263	1010

The first 2 entries again:

- everolimus + ABT-263 : WM115: 1360
- T0901317 + docetaxel : WM115: 186

From a melanoma drug combination screen (doi:10.1371/journal.pone.0140310); values rounded.